For at least one compound, name, drawing or mass did not settle the structure.
Legend:
Assay type in all cases: cell-based
[1] = test system: osteoclasts on bone slices; experiment: Effect on bone resorption in vitro (bone slices)
Method: To determine the effects of the compounds on osteoclast formation on bone slices, the bone slices were treated with Rapamycin, KX1-141, KX2-328, or KX1-329. […] The number of osteoclasts on the bone slices were counted.
During the resorption of bone, osteoclasts form resorption pits. To determine the effects of the compounds on resorption pit formation on bone slices, the bone slices were treated with Rapamycin, KX1-141, KX2-328, or KX1-329, as described above. […] The number of resorption pits on the bone slices was determined.
Bone slices were treated as indicated above. […] The bone slices were then stained with TRAP.
Bone slices were treated as indicated above. […] The bone slices were stained with Toluidine Blue to reveal resorption pits, which are indicators of osteoclast-mediated resorption of bone.

osteoclasts = experiment: Effect on osteoclast survival; details: 48 hours, RANKL and M-CSF
Method: To determine the effect of the compounds on osteoclast survival, osteoclasts were treated with Rapamycin, KX1-141, KX2-328, or KX1-329 for 48 hours in the presence of RANKL and M-CSF. The untreated, control cells were incubated in the presence of RANKL and M-CSF alone. Rapamycin was used as a positive control for the inhibition of osteoclast survival.
As described above, osteoclasts were treated with Rapamycin, KX1-141, KX2-328, or KX1-329 for 48 hours in the presence of RANKL and M-CSF. […] Cells were then stained with TRAP and the number of TRAP-positive osteoclasts were counted.

[2] = test system: osteoclast precursors derived from spleen cells; experiment: Effect on osteoclast formation; details: 5 days, RANKL and M-CSF
Method: To determine the effect of the compounds on osteoclast formation, the compounds were added to osteoclast precursors derived from spleen cells. For the generation of spleen-derived osteoclasts, spleen cells comprising osteoclast precursors were treated with Rapamycin, KX1-141, KX2-328 (Astrazeneca compound), or KX1-329 for 5 days in the presence of receptor activator of nuclear factor-KB ligand (RANKL) and macrophage colony-stimulating factor (M-CSF). In in vitro murine or human osteoclast models, soluble RANKL enables osteoclast precursors to differentiate in the presence of M-CSF (Quinn, et al.; 1998, Endocrinology, 139, 4424-4427; Jimi, et al.; 1999, J. Immunol., 163, 434-442). The untreated control cells were incubated in the presence of RANKL and M-CSF alone. Rapamycin was used as a positive control for the inhibition of osteoclast formation.
For generating spleen-derived osteoclasts, spleen cells were treated as described above. […] Cells were then stained with the osteoclast marker, tartrate-resistant acid phosphatase (TRAP) to visualize differentiated cells. The numbers of TRAP-positive osteoclasts were counted.

CO[C@H]1C[C@@H]2CC[C@@H](C)[C@@](O)(O2)C(=O)C(=O)N2CCCC[C@H]2C(=O)O[C@H]([C@H](C)C[C@@H]2CC[C@@H](O)[C@H](OC)C2)CC(=O)[C@H](C)/C=C(\C)[C@@H](O)[C@@H](OC)C(=O)[C@H](C)C[C@H](C)/C=C/C=C/C=C/1C [Rapamycin, reference compound]
number of osteoclasts on the bone slices vs untreated control ([1]; FIG. 20A): reduced the number of osteoclasts on the bone slices | number of resorption pits on the bone slices vs untreated control ([1]; FIG. 20B): reduced the number of resorption pits | number of TRAP-positive osteoclasts on the bone slices vs untreated control ([1]; TRAP stain, FIG. 21A): reduced the number of TRAP-positive osteoclasts | number of resorption pits on the bone slices vs untreated control ([1]; Toluidine Blue stain, FIG. 21B): reduced the number of resorption pits | survival of osteoclasts vs untreated control (osteoclasts; FIG. 18): inhibited the survival of osteoclasts | number of TRAP-positive osteoclasts vs untreated control (survival) (osteoclasts; FIG. 19): reduced the number of TRAP-positive osteoclasts | number of TRAP-positive osteoclasts vs untreated control (formation) ([2]; FIG. 17): reduced the number of TRAP-positive osteoclasts | formation of osteoclasts vs untreated control ([2]; stained, FIG. 16): inhibited the formation of osteoclasts
